PubChem BioAssay AID1458 (National Center for Advancing Translational Sciences (NCATS), 2008)
The campaign covered roughly 210,000 compounds. About 5,900 (2.8%) were called active. Roughly 5% stayed inconclusive and do not appear here. Calls follow the shape of the dose curve; as a rule, active = well fitted activation curve with a large enough effect; inconclusive = small, poorly fitted or top-dose-only effect; inactive = no such curve, though single readings can be large or run the other way. The entries are a selection whose mix differs from that of the whole data set. Where no call is shown, the source filed none.

Assay: qHTS Assay for Enhancers of SMN2 Splice Variant Expression; also: nearly all actives have a fitted effect of over 55% in size; as to activity change, positive = activation: % of control where 0% means no effect
Conditions: HEK293 SMN2-luciferase splicing reporter, luminescence, 30-36 h; activity change, positive = activation: at 46.1 µM (top of the series) unless noted
Method in brief: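 HEK293 cells carry an SMN2 minigene-luciferase reporter in which exon 7 inclusion puts luciferase in frame. Cells were seeded at 2000 cells/well, attached for 10-12 hours, then exposed to compounds for 30-36 hours at 37C before ONE-Glo luminescence.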
Potency is read from the fitted curve at half-maximal effect.

Row | Compound | activity change, positive = activation | Potency
1 | COc1ccc(OC)c(C(=O)c2ccc(C(=O)Nc3ccc4ccccc4c3)cc2)c1 | inactive: -52.4% | –
2 | O=C(N/N=C/c1cccnc1)c1cc2c(ccc3ccccc32)o1 | inactive: -13.4% | –
3 | COc1ccc(-n2ncc3c(N4CCc5ccccc54)ncnc32)cc1 | – | active: 5.62 µM
4 | Cc1ccc(C2/C(=C(/O)c3cnn(-c4ccccc4)c3C)C(=O)C(=O)N2CCN2CCOCC2)o1 (stereo unspecified) | inactive: -51.7% | –
5 | Cc1cccc(NCCC#N)c1 | 30.6% | –
6 | NC(=O)c1cc2cc(Cl)ccc2oc1=O | 33.3% | –
7 | CC(Oc1ccc(C(=O)c2ccccc2)cc1)C(=O)Nc1ccc(S(N)(=O)=O)cc1 (stereo unspecified) | -59.6% | –
8 | CCOc1ccc(/C=C/C2=NNC(=O)CC2)cc1 | – | active: 11.2 µM
9 | Cc1nc2nc[nH]n2c(=O)c1NC(=O)c1c(-c2ccccc2Cl)noc1C | 64.2% | –
10 | COc1cc2c(cc1OC)C(c1ccsc1)CC(=O)N2 (stereo unspecified) | 22% | –
11 | CC(C)OCCCNC(=O)c1ccc(NS(C)(=O)=O)cc1 | 38.2% | –
12 | CN(C)c1ccc(N=Nc2cccc3ccoc23)cc1 | – | active: 3.55 µM
13 | Fc1ccc(/C=C/c2nnc(-c3cccs3)o2)cc1 | – | active: 12.6 µM
14 | CC(C)CC(N=C1NC(C)(C)Cc2ccccc21)C(=O)O (stereo unspecified) | -55% | –
15 | CC1(C)CC(CCC(=O)Nc2ccccc2Cl)C(=O)O1 (stereo unspecified) | 30% | –
16 | O=C(c1ccco1)N1CCN(C(c2ccccn2)c2nnnn2C2CCCC2)CC1 (stereo unspecified) | – | active: 12.6 µM
17 | CCC(C)NC(=O)CN1C(=O)NC2(CCc3ccccc3C2)C1=O (stereo unspecified) | inactive: 29.6% | –
18 | CCOC(=O)c1c(NC2OC(=O)c3c2ccc(OC)c3OC)sc(C(=O)OC(C)(C)C)c1C (stereo unspecified) | 57.2% | –
19 | c1ccc(Cn2nnc3c(N4CCN(Cc5ccc6c(c5)OCO6)CC4)ncnc32)cc1 | -30.5% | –
20 | Cc1ccccc1C(=O)Nc1c(C)nc(Nc2ccccc2)nc1Nc1ccccc1 | inactive: -38.1% | –
21 | O=[N+]([O-])c1nn(-c2ccc(Cl)cc2)n(O)c1=NCc1ccccc1Cl | 44.4% | –
22 | CCOc1ccc(Nc2nnc(-n3nc(C)cc3C)c3ccccc23)cc1 | 30.7% | –
23 | O=C(Nc1ccccn1)NC1CCCCC1 | 35.1% | –
24 | O=C(Nc1ccc(N2CCN(C(=O)c3ccccc3)CC2)cc1)c1ccc2c(c1)OCO2 | inactive: -61% | –

A different layout for some results above.
Cc1ccccc1C(=O)Nc1c(C)nc(Nc2ccccc2)nc1Nc1ccccc1
  activity change, positive = activation: inactive: -38.1%
O=C(Nc1ccccn1)NC1CCCCC1
  activity change, positive = activation: 35.1%
O=C(Nc1ccc(N2CCN(C(=O)c3ccccc3)CC2)cc1)c1ccc2c(c1)OCO2
  activity change, positive = activation: inactive: -61%

Further results follow.

Row | Compound | activity change, positive = activation | Potency
25 | CC(Nc1cccnc1)=C(C#N)C#N | 15.7% | –
26 | CC(C)=NOc1nc(N(C)C)nc(N(C)C)n1 | 15.4% | –
27 | Clc1ccc(OCCn2cnc3ccccc32)cc1 | inactive: -33.1% | –
28 | O=C(O)c1ccc2c(c1)C(=O)N(c1cc(C(=O)O)ccc1Br)C2=O | 31.9% | –
29 | Cc1ccc(/C=N/NC(=O)c2ccccn2)s1 | – | active: 3.98 µM
30 | CC(=O)Nc1ccc(NC2=C(Cl)C(=O)c3ccccc3C2=O)cc1 | -92.7% | –
31 | CCOC(=O)Cc1csc(NS(=O)(=O)Cc2ccccc2)n1 | 38.3% | –
32 | CCCn1c(NCc2ccc(N(CC)CC)cc2)nc2ccccc21 | inactive: -50.8% | –
33 | O=C(CSc1nnc(C2COc3ccccc3O2)o1)N1CCCC1 (stereo unspecified) | 50.2% | –
34 | COC(=O)c1ccc2c(=O)n(CCN3CCOCC3)c(SCC(=O)NCc3ccccc3)nc2c1 | inactive: -31.7% | –
35 | CC1(C)CC(NC(=O)CC(c2ccccc2)c2ccccc2)CC(C)(C)N1 | 61% | –
36 | CC(C)C(C)(C#N)NC(=O)CSc1ncnc2sc(-c3ccccc3)cc12 (stereo unspecified) | -57.1% | –
37 | Cc1ccc(C)n1-c1ccc(C(=O)Nc2ccccc2F)cc1 | 95.5% | –
38 | CCS(=O)(=O)c1ccc2oc(Nc3ccc(OC)cc3)nc2c1 | inactive: 2.88% | –
39 | COC(=O)[C@@H]1C[C@H]1[C@@H](NS(=O)(=O)c1ccc(-c2ccccc2)cc1)c1ccccc1 | inactive: -56.8% | –
40 | COc1ccc(OC)c(-c2nc3c(C)n[nH]c(=O)c3[nH]2)c1 | inactive: -38.2% | –
41 | CC(Sc1nnc(-c2cccs2)n1-c1ccccc1)C(=O)NCc1ccco1 (stereo unspecified) | 37.5% | –
42 | COC(=O)c1ccc(C2C(C#N)=C(N)Oc3cc(C)n(C)c(=O)c32)cc1 (stereo unspecified) | 33% | –
43 | Cc1cccc(NC(=O)CC(C)(C)C)c1 | 40% | –
44 | COc1ccccc1NC(=O)N1CCCC1C(=O)NCc1ccccc1F (stereo unspecified) | – | active: 6.31 µM
45 | COCCNC(=O)CCCn1c(SCc2ccccc2Cl)nc2c(sc3ccccc32)c1=O | 31.9% | –
46 | Clc1ccc(-c2nc3n(n2)Cc2ccccc2-3)cc1 | – | active: 0.501 µM
47 | O=C(COc1cccc2c1CCN(Cc1ccccc1)C2=O)NCc1ccco1 | 8.6% | –
48 | CCCCN(CCCC)C(=O)CSc1nnc2n(C)c(=O)c3c4c(sc3n12)CCCC4 | inactive: -56.5% | –

Row | Compound | activity change, positive = activation | Potency
49 | CCCn1c(SCC(=O)Nc2nc3ccccc3s2)nc2c1c(=O)n(C)c(=O)n2C | -36.6% | –
50 | CC(C)N(Cc1nc(-c2ccc(Cl)cc2)no1)C(=O)c1cccs1 | -39.8% | –
51 | N#Cc1ncc(C(F)(F)F)cc1Sc1ccc(N)cc1 | -31.4% | –
52 | Cc1ccc(C(=O)CSc2cc(C)nc(SCC(=O)c3ccccc3)n2)cc1 | -35.2% | –
53 | COC(=O)c1c(N)nc(C)n1-c1ccc(OC)cc1 | 14.8% | –
54 | CCn1c(CC(=O)Nc2ccc(C)c(Cl)c2)nnc1SCC(=O)Nc1nc(C)cs1 | 52.2% | –
55 | COc1cc(NC(=S)NNC(=O)CC(C)C)c(OC)cc1Cl | -0.815% | –
56 | Clc1ccc2nc(CSCc3ccccc3)cn2c1 | – | active: 12.6 µM
57 | Cc1cccc(OCc2nnc(N)s2)c1 | 59.7% | –
58 | Cc1ccc2c(CN3CCC(C)CC3)cc(=O)oc2c1 | – | active: 14.1 µM
59 | Cc1ccccc1NS(=O)(=O)c1ccc(F)cc1 | 33.2% | –
60 | O=S(=O)(c1ccccc1)N1CCN(Cc2ccccc2C(F)(F)F)CC1 | 56.1% | –
61 | c1ccc(NCCCNc2ccccc2)cc1 | 54.4% | –
62 | CCCCCS(=O)(=O)CCCCCCCCCCn1c(-c2ccc(O)cc2)c(C)c2cc(O)ccc21 | inactive: -114% | –
63 | CC1=CC(C)(C)NC(=S)N1c1ccc(C)cc1C | -96% | –
64 | Cc1cnc(NC(=O)C2CCCC2)s1 | – | active: 14.1 µM
65 | CCCN(CCO)Cc1cccc(Oc2ccccc2)c1 | 39% | –
66 | C/C(=N\NC(=O)c1ccncc1)c1cccs1 | 31.3% | –
67 | COCCn1c(C)cc(C(=O)CSc2ccc3ccccc3n2)c1C | – | active: 11.2 µM
68 | COc1ccc(NC(=O)c2ccc3c(=O)n(-c4ccc(OC)cc4OC)c(=S)[nH]c3c2)c(OC)c1 | inactive: -40.4% | –
69 | CCOc1ccc2cc(S(=O)(=O)n3ccnc3C)ccc2c1 | 42.6% | –
70 | CCOC(=O)c1c(NC(=O)c2cccs2)sc2c1CCCC2 | 35.9% | –
71 | O=[N+]([O-])c1cc(-c2nc(-c3ccncc3)no2)cc([N+](=O)[O-])c1 | 37.6% | –

Gathered by group: those above containing a CF3 group (2)
Row | Compound | activity change, positive = activation | Potency
51 | N#Cc1ncc(C(F)(F)F)cc1Sc1ccc(N)cc1 | -31.4% | –
60 | O=S(=O)(c1ccccc1)N1CCN(Cc2ccccc2C(F)(F)F)CC1 | 56.1% | –
